{
  "source": "paper PMC11142916",
  "key": {"[1]": {"test_system": "EcoP15I Type III restriction-modification holoenzyme (Mod2Res1) (Escherichia coli)", "assay": "EMSA", "conditions": "no ATP, EMSA: 0.1 nM duplex, 100 ng/ul BSA, 20 min, 5% PAGE in TBM with 4 mM MgCl2"}, "[2]": {"test_system": "EcoP15I Type III restriction-modification holoenzyme (Mod2Res1) (Escherichia coli)", "assay": "stopped-flow HEX anisotropy (dissociation)", "conditions": "heparin trap, anisotropy: 25 nM duplex, 50-75 nM EcoP15I, 2.5 uM heparin, +/- 4 mM ATP, recombinant protein"}, "[3]": {"test_system": "EcoP15I Type III restriction-modification holoenzyme (Mod2Res1) (Escherichia coli)", "assay": "2-aminopurine fluorescence", "conditions": "no ATP; 2-aminopurine replaces A at position 11 of strand 1; 25 C; recombinant protein; label: 2-AP"}, "[4]": {"conditions": "5'-biotin on strand 1, recombinant protein, label: 5'-32P strand 2"}, "[5]": {"conditions": "dissociation barely stimulated by ATP, label: 5'-HEX strand 1"}, "[6]": {"conditions": "ATP, prebound, label: 5'-HEX strand 1"}},
  "note": "For at least one entry, the source does not settle the construct or the ends of the probe. For part of these data: The comparison behind a weaker result is the experiment's own reference, which may not be listed here. For part of these data: At least one verdict rests on a figure or table, not on a statement of the authors.",
  "data": [
    {"sequence": "GTGCATACTACAGCAGATACGTTCGGCCAGTACACTCACAACCTTCATACCTGG (double strand) [10/38]", "values": [
      {"measurement": "Kd", "setting": "[1]; [4]", "value": 0.342, "unit": "nM"}
    ]},
    {"sequence": "TACAGCAGATACGTTCGGCCAGTACACTCACAACCTTCATACCTGG (double strand) [2/38]", "values": [
      {"measurement": "Kd", "setting": "[1]; [4]", "value": 0.533, "unit": "nM"}
    ]},
    {"sequence": "TGGCTTCAGCAGACC / GCAGATACCAAAACTGTCCTTCTATTGACAATTCG / CGAATTGTCAATAGAAGGACAGTTTTGGTATCTGCGGTCTGCTGAAGCCA [38N/38]", "values": [
      {"measurement": "binding result", "setting": "[2]; ATP, prebound, 5'-phosphate on S117, label: 5'-HEX S125", "value": "binds"}
    ]},
    {"sequence": "TGGCTTCAGCAGACCGCAG (double strand) [7/7]", "values": [
      {"measurement": "binding result", "setting": "[2]; no ATP, label: 5'-HEX strand 1", "value": "binds more weakly"}
    ]},
    {"sequence": "TGGCTTCAGCAGACCGCAGA (double strand) [8/8]", "values": [
      {"measurement": "binding result", "setting": "[2]; no ATP, label: 5'-HEX strand 1", "value": "binds more weakly"}
    ]},
    {"sequence": "TGGCTTCAGCAGACCGCAGAT (double strand) [9/9]", "values": [
      {"measurement": "binding result", "setting": "[2]; no ATP, label: 5'-HEX strand 1", "value": "binds more weakly"}
    ]},
    {"sequence": "TGGCTTCAGCAGACCGCAGATA (double strand) [10(P3')/10]", "values": [
      {"measurement": "binding result", "setting": "[2]; small stability gain over 10/10, 3'-phosphate strand 1, label: 5'-HEX strand 1", "value": "binds more weakly"}
    ]},
    {"sequence": "TGGCTTCAGCAGACCGCAGATA (double strand) [10/10]", "values": [
      {"measurement": "binding result", "setting": "[2]; no ATP, label: 5'-HEX strand 1", "value": "binds more weakly"}
    ]},
    {"sequence": "TGGCTTCAGCAGACCGCAGATA / TGGTATCTGCGGTCTGCTGAAGCCA [10/13]", "values": [
      {"measurement": "binding result", "setting": "[2]; TS extension little effect vs 10/10, label: 5'-HEX strand 1", "value": "binds more weakly"}
    ]},
    {"sequence": "TGGCTTCAGCAGACCGCAGATAC (double strand) [11/11]", "values": [
      {"measurement": "binding result", "setting": "[2]; [5]", "value": "binds"}
    ]},
    {"sequence": "TGGCTTCAGCAGACCGCAGATACC (double strand) [12/12]", "values": [
      {"measurement": "binding result", "setting": "[2]; [5]", "value": "binds"}
    ]},
    {"sequence": "TGGCTTCAGCAGACCGCAGATACC / TGGTATCTGCGGTCTGCTGAAGCCA [12/12+1T]", "values": [
      {"measurement": "binding result", "setting": "[2]; [6]", "value": "binds"}
    ]},
    {"sequence": "TGGCTTCAGCAGACCGCAGATACC / TTGGTATCTGCGGTCTGCTGAAGCCA [12/12+2T]", "values": [
      {"measurement": "binding result", "setting": "[2]; [6]", "value": "binds"}
    ]},
    {"sequence": "TGGCTTCAGCAGACCGCAGATACC / TTTGGTATCTGCGGTCTGCTGAAGCCA [12/12+3T]", "values": [
      {"measurement": "binding result", "setting": "[2]; [6]", "value": "binds"}
    ]},
    {"sequence": "TGGCTTCAGCAGACCGCAGATACC / TTTTGGTATCTGCGGTCTGCTGAAGCCA [12/12+4T]", "values": [
      {"measurement": "binding result", "setting": "[2]; [6]", "value": "binds"}
    ]},
    {"sequence": "TGGCTTCAGCAGACCGCAGATACC / TTTTTGGTATCTGCGGTCTGCTGAAGCCA [12/12+5T]", "values": [
      {"measurement": "binding result", "setting": "[2]; [6]", "value": "binds"}
    ]},
    {"sequence": "TGGCTTCAGCAGACCGCAGATACCA (double strand) [13/13]", "values": [
      {"measurement": "binding result", "setting": "[2]; no ATP, label: 5'-HEX strand 1", "value": "binds"}
    ]},
    {"sequence": "TGGCTTCAGCAGACCGCAGATACCA / TATCTGCGGTCTGCTGAAGCCA [13/10]", "values": [
      {"measurement": "binding result", "setting": "[2]; MS extension stabilises, label: 5'-HEX strand 1", "value": "binds"}
    ]},
    {"sequence": "TGGCTTCAGCAGACCGCAGATACCAA (double strand) [14/14]", "values": [
      {"measurement": "binding result", "setting": "[2]; no ATP, label: 5'-HEX strand 1", "value": "binds"}
    ]},
    {"sequence": "TGGCTTCAGCAGACCGCAGATACCAAA (double strand) [15/15]", "values": [
      {"measurement": "binding result", "setting": "[2]; no ATP, label: 5'-HEX strand 1", "value": "binds"}
    ]},
    {"sequence": "TGGCTTCAGCAGACCGCAGATACCAAAA (double strand) [16/16]", "values": [
      {"measurement": "binding result", "setting": "[2]; no ATP, label: 5'-HEX strand 1", "value": "binds"}
    ]},
    {"sequence": "TGGCTTCAGCAGACCGCAGATACCAAAAC (double strand) [17/17 HEX]", "values": [
      {"measurement": "binding result", "setting": "[2]; no ATP, label: 5'-HEX strand 1", "value": "binds"}
    ]},
    {"sequence": "TGGCTTCAGCAGACCGCAGATACCAAAAC (double strand) [17/17 biotin (band shift)]", "values": [
      {"measurement": "Kd", "setting": "[1]; 10 nM streptavidin on biotin end, 5'-biotin on strand 2, recombinant …, label: 5'-32P strand 1", "value": 0.255, "unit": "nM"},
      {"measurement": "Kd", "setting": "[1]; without streptavidin, 5'-biotin on strand 2, recombinant protein, label: 5'-32P strand 1", "value": 0.207, "unit": "nM"}
    ]},
    {"sequence": "TGGCTTCAGCAGACCGCAGATACCAAAACT (double strand) [18/18]", "values": [
      {"measurement": "binding result", "setting": "[2]; no ATP, label: 5'-HEX strand 1", "value": "binds"}
    ]},
    {"sequence": "TGGCTTCAGCAGACCGCAGATACCAAAACTG (double strand) [19/19]", "values": [
      {"measurement": "binding result", "setting": "[2]; no ATP, label: 5'-HEX strand 1", "value": "binds"}
    ]},
    {"sequence": "TGGCTTCAGCAGACCGCAGATACCAAAACTGT (double strand) [20/20]", "values": [
      {"measurement": "binding result", "setting": "[2]; no ATP, label: 5'-HEX strand 1", "value": "binds"}
    ]},
    {"sequence": "TGGCTTCAGCAGACCGCAGATACCAAAACTGTC (double strand) [21/21]", "values": [
      {"measurement": "binding result", "setting": "[2]; no ATP, label: 5'-HEX strand 1", "value": "binds"}
    ]},
    {"sequence": "TGGCTTCAGCAGACCGCAGATACCAAAACTGTCC (double strand) [22/22]", "values": [
      {"measurement": "binding result", "setting": "[2]; no ATP, label: 5'-HEX strand 1", "value": "binds"}
    ]},
    {"sequence": "TGGCTTCAGCAGACCGCAGATACCAAAACTGTCCT (double strand) [23/23]", "values": [
      {"measurement": "binding result", "setting": "[2]; no ATP, label: 5'-HEX strand 1", "value": "binds"}
    ]},
    {"sequence": "TGGCTTCAGCAGACCGCAGATACCAAAACTGTCCTT (double strand) [24/24]", "values": [
      {"measurement": "binding result", "setting": "[2]; no ATP, label: 5'-HEX strand 1", "value": "binds"}
    ]},
    {"sequence": "TGGCTTCAGCAGACCGCAGATACCAAAACTGTCCTTC (double strand) [25/25]", "values": [
      {"measurement": "binding result", "setting": "[2]; no ATP, label: 5'-HEX strand 1", "value": "binds"}
    ]},
    {"sequence": "TGGCTTCAGCAGACCGCAGATACCAAAACTGTCCTTCTATTGACAATTCG (double strand) [2-aminopurine 38/38]", "values": [
      {"measurement": "binding result", "setting": "[3]", "value": "binds"}
    ]},
    {"sequence": "TGGCTTCAGCAGACCGCAGATACCAAAACTGTCCTTCTATTGACAATTCG (double strand) [38/38]", "values": [
      {"measurement": "binding result", "setting": "[2]; no ATP, label: 5'-HEX strand 1", "value": "binds"}
    ]},
    {"sequence": "TGGCTTCAGCAGACCGCAGATACCAAAACTGTCCTTCTATTGACAATTCG (double strand) [MS_Rev]", "values": [
      {"measurement": "binding result", "setting": "[2]; ATP, prebound, reversed backbone polarity (3'-AAAAC-5', joined 3'-3' and 5'-5') at positions 25-29 of strand 1, bases written in printed order, label: 5'-HEX strand 1, synthetic backbone", "value": "binds"}
    ]},
    {"sequence": "TGGCTTCAGCAGACCGCAGATACCAAAACTGTCCTTCTATTGACAATTCG (double strand) [TS_Rev]", "values": [
      {"measurement": "binding result", "setting": "[2]; ATP, prebound, slower dissociation, reversed backbone polarity (3'-GTTTT-5', joined 3'-3' and 5'-5') at positions 22-26 of strand 2, bases written in printed order, label: 5'-HEX strand 1, synthetic backbone", "value": "binds"}
    ]},
    {"sequence": "TGGCTTCAGCAGACCGCAGATACCAAAACTGTCCTTCTATTGACAATTCG / CGAATTGTCAATAGAAGGACAGTTTTGGTATCTGC / GGTCTGCTGAAGCCA [38/38N]", "values": [
      {"measurement": "binding result", "setting": "[2]; ATP, prebound, 5'-phosphate on S119, label: 5'-HEX S20", "value": "binds"}
    ]},
    {"sequence": "TGGCTTCAGCAGACCGCAGATACCT / GGTATCTGCGGTCTGCTGAAGCCA [12+1T/12]", "values": [
      {"measurement": "binding result", "setting": "[2]; [6]", "value": "binds"}
    ]},
    {"sequence": "TGGCTTCAGCAGACCGCAGATACCTT / GGTATCTGCGGTCTGCTGAAGCCA [12+2T/12]", "values": [
      {"measurement": "binding result", "setting": "[2]; [6]", "value": "binds"}
    ]},
    {"sequence": "TGGCTTCAGCAGACCGCAGATACCTTT / GGTATCTGCGGTCTGCTGAAGCCA [12+3T/12]", "values": [
      {"measurement": "binding result", "setting": "[2]; [6]", "value": "binds"}
    ]},
    {"sequence": "TGGCTTCAGCAGACCGCAGATACCTTTT / GGTATCTGCGGTCTGCTGAAGCCA [12+4T/12]", "values": [
      {"measurement": "binding result", "setting": "[2]; [6]", "value": "binds"}
    ]},
    {"sequence": "TGGCTTCAGCAGACCGCAGATACCTTTTT / GGTATCTGCGGTCTGCTGAAGCCA [12+5T/12]", "values": [
      {"measurement": "binding result", "setting": "[2]; [6]", "value": "binds"}
    ]}
  ]
}
